Results as given in the supplement of paper PMC3741180, “A Novel High Throughput Biochemical Assay to Evaluate the HuR Protein-RNA Complex Formation” (PLoS ONE, 2013).
Some of the results follow. Most values lie within the scatter of the assay; repeated measurements hardly agree.

Chains of the proteins cited; added tags and fusions are not shown.
UniProt Q15717, whole entry: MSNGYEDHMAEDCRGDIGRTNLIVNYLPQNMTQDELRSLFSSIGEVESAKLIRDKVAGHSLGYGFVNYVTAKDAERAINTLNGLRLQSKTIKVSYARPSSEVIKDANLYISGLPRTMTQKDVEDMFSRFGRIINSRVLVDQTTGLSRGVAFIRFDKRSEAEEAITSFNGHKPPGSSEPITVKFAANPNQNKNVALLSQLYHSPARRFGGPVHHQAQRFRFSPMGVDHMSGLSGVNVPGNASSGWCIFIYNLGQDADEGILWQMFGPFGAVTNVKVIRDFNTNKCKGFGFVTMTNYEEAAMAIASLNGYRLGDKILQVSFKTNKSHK

molecular target: HuR (ELAVL1) - TNFalpha ARE RNA complex (UniProt Q15717); experiment: AlphaScreen HuR-RNA complex signal Z-score relative to positive (Bi-TNF, DMSO) controls (Z-score (SD units of positive control)); higher = more complex signal; conditions: screen stage: primary screen; compound concentration: 25 nM

Structure (SMILES)	AlphaScreen HuR-RNA complex signal Z-score
COc1c(CC(=O)c2cc3c(cc2O)OC(C)(C)C(O)C3)ccc2c1C=CC(C)(C)O2 (stereo not drawn)	1.4
Cc1onc(-c2ccccc2Cl)c1C(=O)N[C@@H]1C(=O)N2[C@@H]1SC(C)(C)[C@@H]2C(=O)O	-3.18
NS(=O)(=O)c1cc2c(cc1Cl)NC(C(Cl)Cl)NS2(=O)=O (stereo not drawn)	-3.09
CN[C@@H]1[C@H](O)[C@H](NC)[C@H]2O[C@@]3(O)C(=O)C[C@@H](C)O[C@H]3O[C@@H]2[C@H]1O	2.66
CN[C@H](CC(=O)O)C(=O)O	3.52
CC(=O)Oc1cc(OC(C)=O)c2c(c1)O[C@H](c1ccc(OC(C)=O)c(OC(C)=O)c1)[C@@H](OC(C)=O)C2	1.56
CC(C)CCC[C@@H](C)[C@H]1CC[C@H]2[C@@H]3CC(=O)[C@H]4C[C@@H](O)CC[C@]4(C)[C@H]3CC[C@]12C [5alpha-CHOLESTAN-3beta-OL-6-ONE]	0.822
NCCCC(=O)O [gamma-AMINOBUTYRIC ACID]	0.593
CCCCCCCCCCCCCCCCCCCCCCO	1.93
CC12CCC(CC1=O)C2(C)C (stereo not drawn)	0.307
CN[C@@H]1[C@@H](O[C@H]2O[C@H](CO)[C@@H](N)[C@H](O)[C@H]2O)OC2C[C@@H](N)[C@@H](O[C@H]3[C@H](O)[C@@H](O)[C@H](N)C[C@@H]3N)OC2[C@@H]1O (stereo partly drawn)	2.9
C=C[C@@](C)(O)CCC1C(=C)CCC2[C@@](C)(CO)CCC[C@]12C (stereo partly drawn)	0.0438
CC1(C)O[C@H]2CC(=O)OC[C@]23[C@H]2CC[C@@]4(C)[C@H](c5ccoc5)OC(=O)[C@H]5O[C@]54[C@]2(C)C(=O)C[C@@H]13	2.68
C[n+]1c2cc(N)ccc2cc2ccc(N)cc21	-0.96
COc1ccc(-c2coc3cc(OC)ccc3c2=O)cc1	0.598
O=C(N[C@H](CO)[C@H](O)c1ccc([N+](=O)[O-])cc1)C(Cl)Cl	-3.31
O=C(O)CCNC(=O)c1ccccc1	1.74
CCC[C@@H]1C[C@@H](C(=O)N[C@@H]([C@H]2O[C@H](SC)[C@H](O)[C@@H](O)[C@H]2O)[C@H](C)Cl)N(C)C1	-2.25
CCN(CC)CCNC(=O)c1cc(Cl)c(N)cc1OC	3.08
COc1ccc(-c2oc3cc(OC)c(OC)c(OC)c3c(=O)c2OC)cc1	0.503
NCCCNCCCCNCCCN	-0.0901
CC(C)(CO)C(O)C(=O)NCCCO (stereo not drawn)	0.639

Structure (SMILES)	AlphaScreen HuR-RNA complex signal Z-score
CN(C)C/C=C(/c1ccc(Br)cc1)c1cccnc1	2.34
CCOc1ccc2ccccc2c1C(=O)N[C@@H]1C(=O)N2[C@@H]1SC(C)(C)[C@@H]2C(=O)O	-3.15
Cn1cnc2c1c(=O)[nH]c(=O)n2C	-0.311
CC1=CC(=O)C(C(C)C)=CC1=O	1.04
OCc1cccnc1	0.901
O=Cc1ccccc1O[C@@H]1O[C@H](CO)[C@@H](O)[C@H](O)[C@H]1O	1.73
COC(=O)C(Cc1ccccc1)NC(=O)/C(=C1/OC(=O)C(c2ccccc2)=C1O)c1ccccc1 (stereo not drawn)	2.02
CN(C)CCC=C1c2ccccc2COc2ccccc21	-2.53
CC(C)[N+](C)(CCOC(=O)C1c2ccccc2Oc2ccccc21)C(C)C	1.61
CN1CCC[C@@H]1Cc1c[nH]c2ccc(CCS(=O)(=O)c3ccccc3)cc12	-0.883
Cc1cccc(C)c1OCC(C)N (stereo not drawn)	0.708
COc1cc(C)c2c(c1C=O)Oc1c(c(C)c(O)c3c1C(O)OC3=O)OC2=O (stereo not drawn)	0.555
CC[C@]1(O)C[C@H]2CN(CCc3c([nH]c4ccccc34)[C@@](C(=O)OC)(c3cc4c(cc3OC)N(C=O)[C@H]3[C@@](O)(C(=O)OC)[C@H](OC(C)=O)[C@]5(CC)C=CCN6CC[C@]43[C@@H]65)C2)C1	2.07
COc1ccccc1OCC(O)CO (stereo not drawn)	-1.21
Cc1cc(=O)[nH]c(=S)[nH]1	0.504
CC1(C)C2CCC1(C)C(O)C2 (stereo not drawn)	0.938
Cc1c(N(C)C)c(=O)n(-c2ccccc2)n1C	-0.519
Oc1c(Cl)cc(Cl)c(Cl)c1Cc1c(O)c(Cl)cc(Cl)c1Cl	-2.76
CC(=O)N1CCCC1C(=O)O (stereo not drawn)	1.99
Oc1ccc(/C=C/c2cc(O)cc(O)c2)cc1	0.372
CCCCCCCCCCCCCCC(C(=O)O)C(O)(CC(=O)OC)C(=O)O (stereo not drawn)	1.97

In the list so far, these contain four or more nitrogen atoms:
Structure (SMILES)	AlphaScreen HuR-RNA complex signal Z-score
CN[C@@H]1[C@@H](O[C@H]2O[C@H](CO)[C@@H](N)[C@H](O)[C@H]2O)OC2C[C@@H](N)[C@@H](O[C@H]3[C@H](O)[C@@H](O)[C@H](N)C[C@@H]3N)OC2[C@@H]1O (stereo partly drawn)	2.9
NCCCNCCCCNCCCN	-0.0901
Cn1cnc2c1c(=O)[nH]c(=O)n2C	-0.311
CC[C@]1(O)C[C@H]2CN(CCc3c([nH]c4ccccc34)[C@@](C(=O)OC)(c3cc4c(cc3OC)N(C=O)[C@H]3[C@@](O)(C(=O)OC)[C@H](OC(C)=O)[C@]5(CC)C=CCN6CC[C@]43[C@@H]65)C2)C1	2.07
